Results: paper PMC11178898, “A clade of receptor-like cytoplasmic kinases and 14-3-3 proteins coordinate inositol hexaphosphate accumulation” (Nature Communications, 2024)
No constants are given. Whether binding was seen depends on the method and setting. In cells and extracts the contact can be indirect. Here binding means that the protein was enriched with, or labelled near, the bait; the list need not be complete.

B1: GRF4 (General Regulatory Factor 4, 14-3-3 protein), endogenous (protein, UniProt P46077 1-267)
chain: MAAPPASSSAREEFVYLAKLAEQAERYEEMVEFMEKVAEAVDKDELTVEERNLLSVAYKNVIGARRASWRIISSIEQKEESRGNDDHVTTIRDYRSKIESELSKICDGILKLLDTRLVPASANGDSKVFYLKMKGDYHRYLAEFKTGQERKDAAEHTLTAYKAAQDIANAELAPTHPIRLGLALNFSVFYYEILNSPDRACNLAKQAFDEAIAELDTLGEESYKDSTLIMQLLRDNLTLWTSDMQDESPEEIKEAAAPKPAEEQKEI
B2: GRF3 (14-3-3 protein), endogenous (protein, UniProt P42644 1-255)
chain: MSTREENVYMAKLAEQAERYEEMVEFMEKVAKTVDVEELSVEERNLLSVAYKNVIGARRASWRIISSIEQKEESKGNEDHVAIIKDYRGKIESELSKICDGILNVLEAHLIPSASPAESKVFYLKMKGDYHRYLAEFKAGAERKEAAESTLVAYKSASDIATAELAPTHPIRLGLALNFSVFYYEILNSPDRACSLAKQAFDDAIAELDTLGEESYKDSTLIMQLLRDNLTLWTSDMTDEAGDEIKEASKPDGAE
B3: PI-PLC2, endogenous (protein, UniProt Q39033 1-581)
chain: MSKQTYKVCFCFRRRFRYTASEAPREIKTIFEKYSENGVMTVDHLHRFLIDVQKQDKATREDAQSIINSASSLLHRNGLHLDAFFKYLFGDNNPPLALHKVHHDMDAPISHYFIFTGHNSYLTGNQLSSDCSEVPIIDALKKGVRVIELDIWPNSNKDDIDVLHGMTLTTPVGLIKCLKAIRAHAFDVSDYPVVVTLEDHLTPDLQSKVAEMVTEIFGEILFTPPVGESLKEFPSPNSLKRRIIISTKPPKEYKEGKDVEVVQKGKDLGDEEVWGREVPSFIQRNKSEAKDDLDGNDDDDDDDDEDKSKINAPPQYKHLIAIHAGKPKGGITECLKVDPDKVRRLSLSEEQLEKAAEKYAKQIVRFTQHNLLRIYPKGTRVTSSNYNPLVGWSHGAQMVAFNMQGYGRSLWLMQGMFRANGGCGYIKKPDLLLKSGSDSDIFDPKATLPVKTTLRVTVYMGEGWYFDFRHTHFDQYSPPDFYTRVGIAGVPGDTVMKKTKTLEDNWIPAWDEVFEFPLTVPELALLRLEVHEYDMSEKDDFGGQTCLPVWELSEGIRAFPLHSRKGEKYKSVKLLVKVEFV

Target: IPCK1-flag (Arabidopsis thaliana)
Test: affinity purification with mass spectrometry; IP-MS: total protein (RIPA buffer) of 10-day-old 35S::IPCK1-flag/WT seedlings, flag magnetic beads 2 h on ice, washed with PBS

Binder | binding
B1 | binds
B2 | binds
B3 | binds
